Test results as given in the supplement of paper PMC11006884.
This list holds what a sample rich in targets with a hit left over. The data scatter; read single values as rough. Only a part is listed here, and it is no random draw.

By UniProt entry, the sequences of proteins in these tests, tags left out. Where a name states a change or a piece, a line headed by the entry shows the natural chain unless it says otherwise.
UniProt O60701: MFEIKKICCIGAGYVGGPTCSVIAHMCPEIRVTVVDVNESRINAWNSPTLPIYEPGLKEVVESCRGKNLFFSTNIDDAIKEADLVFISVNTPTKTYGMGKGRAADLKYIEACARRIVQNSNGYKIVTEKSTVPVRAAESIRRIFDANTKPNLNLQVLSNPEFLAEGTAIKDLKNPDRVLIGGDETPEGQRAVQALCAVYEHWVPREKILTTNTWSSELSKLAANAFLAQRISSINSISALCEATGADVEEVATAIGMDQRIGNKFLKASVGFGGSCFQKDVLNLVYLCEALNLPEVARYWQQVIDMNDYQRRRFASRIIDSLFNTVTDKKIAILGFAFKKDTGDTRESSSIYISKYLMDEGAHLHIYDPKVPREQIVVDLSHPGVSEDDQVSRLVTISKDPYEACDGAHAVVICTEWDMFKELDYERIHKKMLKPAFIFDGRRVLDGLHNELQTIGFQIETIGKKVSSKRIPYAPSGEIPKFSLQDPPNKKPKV
UniProt O60763: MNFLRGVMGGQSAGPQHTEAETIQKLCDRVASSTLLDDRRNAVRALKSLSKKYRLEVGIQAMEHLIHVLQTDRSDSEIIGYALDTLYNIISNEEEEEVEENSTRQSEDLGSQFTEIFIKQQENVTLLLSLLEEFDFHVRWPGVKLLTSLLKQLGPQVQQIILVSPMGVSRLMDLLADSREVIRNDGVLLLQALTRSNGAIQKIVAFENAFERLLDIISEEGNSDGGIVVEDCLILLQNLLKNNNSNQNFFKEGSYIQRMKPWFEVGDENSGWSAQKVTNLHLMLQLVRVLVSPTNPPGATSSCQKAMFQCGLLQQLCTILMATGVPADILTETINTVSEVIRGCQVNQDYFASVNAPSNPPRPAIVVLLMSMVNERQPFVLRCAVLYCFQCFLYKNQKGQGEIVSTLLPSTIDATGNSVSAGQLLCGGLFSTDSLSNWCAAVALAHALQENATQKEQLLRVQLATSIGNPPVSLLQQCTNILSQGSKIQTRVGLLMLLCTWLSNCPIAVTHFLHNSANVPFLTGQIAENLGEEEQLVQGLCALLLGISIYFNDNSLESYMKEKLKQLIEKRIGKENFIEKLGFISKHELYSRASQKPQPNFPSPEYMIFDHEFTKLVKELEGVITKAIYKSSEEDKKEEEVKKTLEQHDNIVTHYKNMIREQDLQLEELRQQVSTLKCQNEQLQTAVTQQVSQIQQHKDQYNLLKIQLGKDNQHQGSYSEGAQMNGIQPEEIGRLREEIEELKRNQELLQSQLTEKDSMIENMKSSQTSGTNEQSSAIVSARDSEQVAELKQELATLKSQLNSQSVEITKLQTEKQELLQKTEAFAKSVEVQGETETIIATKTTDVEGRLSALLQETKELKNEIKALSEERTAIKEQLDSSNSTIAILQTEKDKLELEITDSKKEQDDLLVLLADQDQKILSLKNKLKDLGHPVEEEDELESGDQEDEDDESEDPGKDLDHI
UniProt O60826, whole entry: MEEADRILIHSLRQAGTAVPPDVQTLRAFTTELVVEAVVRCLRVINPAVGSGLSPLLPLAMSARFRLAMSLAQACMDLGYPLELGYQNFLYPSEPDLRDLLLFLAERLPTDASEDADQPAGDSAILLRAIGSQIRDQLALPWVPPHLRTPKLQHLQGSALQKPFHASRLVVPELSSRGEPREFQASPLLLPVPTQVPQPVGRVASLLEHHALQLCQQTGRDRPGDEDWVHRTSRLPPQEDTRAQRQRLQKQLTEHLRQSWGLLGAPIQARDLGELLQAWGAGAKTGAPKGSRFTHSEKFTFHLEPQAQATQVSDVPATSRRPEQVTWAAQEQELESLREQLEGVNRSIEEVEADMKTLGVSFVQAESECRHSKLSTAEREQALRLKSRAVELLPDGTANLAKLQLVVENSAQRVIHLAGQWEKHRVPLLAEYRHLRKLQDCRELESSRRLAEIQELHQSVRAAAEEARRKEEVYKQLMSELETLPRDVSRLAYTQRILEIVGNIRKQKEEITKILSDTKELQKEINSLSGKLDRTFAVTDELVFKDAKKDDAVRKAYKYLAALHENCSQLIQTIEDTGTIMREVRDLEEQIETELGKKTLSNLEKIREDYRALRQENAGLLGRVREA
UniProt O60256: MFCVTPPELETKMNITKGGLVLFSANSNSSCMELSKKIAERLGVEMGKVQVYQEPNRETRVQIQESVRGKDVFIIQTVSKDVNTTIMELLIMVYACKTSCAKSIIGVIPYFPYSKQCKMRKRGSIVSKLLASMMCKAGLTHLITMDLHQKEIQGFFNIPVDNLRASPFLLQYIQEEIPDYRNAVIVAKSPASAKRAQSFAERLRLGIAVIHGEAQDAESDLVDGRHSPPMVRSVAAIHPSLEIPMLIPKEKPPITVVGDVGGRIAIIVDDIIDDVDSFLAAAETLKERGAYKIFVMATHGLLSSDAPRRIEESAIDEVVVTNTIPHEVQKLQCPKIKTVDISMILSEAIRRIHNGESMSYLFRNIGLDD
UniProt O60232: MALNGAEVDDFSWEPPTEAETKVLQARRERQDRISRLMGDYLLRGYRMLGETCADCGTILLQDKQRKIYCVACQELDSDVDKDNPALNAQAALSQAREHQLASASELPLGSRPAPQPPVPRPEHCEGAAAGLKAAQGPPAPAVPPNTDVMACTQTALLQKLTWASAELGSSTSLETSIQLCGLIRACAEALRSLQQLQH
UniProt O43242, whole entry: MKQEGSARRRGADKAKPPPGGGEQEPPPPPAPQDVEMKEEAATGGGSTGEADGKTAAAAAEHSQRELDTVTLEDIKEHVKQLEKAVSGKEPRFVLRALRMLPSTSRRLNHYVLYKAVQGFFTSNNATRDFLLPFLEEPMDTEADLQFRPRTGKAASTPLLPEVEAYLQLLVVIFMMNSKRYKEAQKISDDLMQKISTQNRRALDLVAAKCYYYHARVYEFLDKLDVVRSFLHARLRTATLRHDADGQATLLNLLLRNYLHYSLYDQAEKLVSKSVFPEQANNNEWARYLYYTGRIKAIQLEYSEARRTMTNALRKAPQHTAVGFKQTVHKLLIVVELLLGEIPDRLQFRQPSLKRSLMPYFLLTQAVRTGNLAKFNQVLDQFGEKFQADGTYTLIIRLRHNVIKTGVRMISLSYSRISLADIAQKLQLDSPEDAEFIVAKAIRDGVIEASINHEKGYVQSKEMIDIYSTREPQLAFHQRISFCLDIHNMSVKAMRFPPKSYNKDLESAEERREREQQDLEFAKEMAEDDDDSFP
UniProt O60610, whole entry, looked up: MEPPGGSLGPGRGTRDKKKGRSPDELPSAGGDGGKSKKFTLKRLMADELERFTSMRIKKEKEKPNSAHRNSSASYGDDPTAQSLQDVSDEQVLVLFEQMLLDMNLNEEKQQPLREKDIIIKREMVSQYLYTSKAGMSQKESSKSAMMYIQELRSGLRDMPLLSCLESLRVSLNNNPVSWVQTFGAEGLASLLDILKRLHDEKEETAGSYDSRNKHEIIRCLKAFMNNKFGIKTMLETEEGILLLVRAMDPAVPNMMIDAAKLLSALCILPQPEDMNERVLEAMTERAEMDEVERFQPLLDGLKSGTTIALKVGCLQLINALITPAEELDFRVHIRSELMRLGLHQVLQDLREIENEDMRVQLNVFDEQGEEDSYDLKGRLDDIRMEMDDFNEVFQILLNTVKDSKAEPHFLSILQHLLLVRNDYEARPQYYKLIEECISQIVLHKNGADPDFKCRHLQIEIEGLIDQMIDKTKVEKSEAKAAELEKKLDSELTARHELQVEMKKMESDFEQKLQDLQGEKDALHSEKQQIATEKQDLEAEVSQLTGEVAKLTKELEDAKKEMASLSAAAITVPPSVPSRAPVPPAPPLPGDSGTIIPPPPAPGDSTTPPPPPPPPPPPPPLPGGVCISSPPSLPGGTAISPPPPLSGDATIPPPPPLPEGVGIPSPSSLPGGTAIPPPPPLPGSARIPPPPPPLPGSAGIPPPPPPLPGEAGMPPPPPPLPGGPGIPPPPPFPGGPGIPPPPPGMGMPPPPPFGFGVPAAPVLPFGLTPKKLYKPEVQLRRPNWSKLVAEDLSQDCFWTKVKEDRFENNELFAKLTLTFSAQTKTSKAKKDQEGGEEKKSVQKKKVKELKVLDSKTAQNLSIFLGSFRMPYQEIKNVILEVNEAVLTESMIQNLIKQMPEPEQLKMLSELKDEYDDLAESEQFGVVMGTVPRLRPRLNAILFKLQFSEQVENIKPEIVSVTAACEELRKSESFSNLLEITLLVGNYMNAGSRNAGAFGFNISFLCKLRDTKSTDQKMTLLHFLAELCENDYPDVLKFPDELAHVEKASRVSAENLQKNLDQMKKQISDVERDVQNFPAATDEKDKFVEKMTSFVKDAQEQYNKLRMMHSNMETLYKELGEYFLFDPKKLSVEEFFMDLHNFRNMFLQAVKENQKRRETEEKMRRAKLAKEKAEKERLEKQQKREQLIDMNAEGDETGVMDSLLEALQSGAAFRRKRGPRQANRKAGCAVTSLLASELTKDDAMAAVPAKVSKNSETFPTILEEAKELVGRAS
UniProt O43719: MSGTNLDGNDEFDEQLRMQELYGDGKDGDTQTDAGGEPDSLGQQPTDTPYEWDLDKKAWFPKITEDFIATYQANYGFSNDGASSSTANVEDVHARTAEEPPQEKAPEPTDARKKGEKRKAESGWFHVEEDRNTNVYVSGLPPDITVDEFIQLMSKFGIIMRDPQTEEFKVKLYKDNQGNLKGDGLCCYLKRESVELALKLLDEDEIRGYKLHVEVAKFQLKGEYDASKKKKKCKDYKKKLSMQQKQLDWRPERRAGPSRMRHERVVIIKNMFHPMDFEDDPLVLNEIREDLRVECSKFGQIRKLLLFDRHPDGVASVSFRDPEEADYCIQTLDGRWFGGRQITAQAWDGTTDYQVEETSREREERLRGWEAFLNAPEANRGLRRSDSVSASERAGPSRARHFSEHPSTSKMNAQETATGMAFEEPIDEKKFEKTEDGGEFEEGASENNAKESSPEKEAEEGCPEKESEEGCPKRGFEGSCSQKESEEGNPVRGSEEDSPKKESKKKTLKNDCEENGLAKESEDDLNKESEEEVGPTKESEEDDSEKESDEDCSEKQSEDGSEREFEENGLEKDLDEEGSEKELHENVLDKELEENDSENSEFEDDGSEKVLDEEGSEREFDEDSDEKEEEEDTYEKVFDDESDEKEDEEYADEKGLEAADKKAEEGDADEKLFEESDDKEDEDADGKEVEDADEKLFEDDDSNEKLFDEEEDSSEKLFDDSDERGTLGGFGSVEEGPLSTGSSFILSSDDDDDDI
UniProt O75446: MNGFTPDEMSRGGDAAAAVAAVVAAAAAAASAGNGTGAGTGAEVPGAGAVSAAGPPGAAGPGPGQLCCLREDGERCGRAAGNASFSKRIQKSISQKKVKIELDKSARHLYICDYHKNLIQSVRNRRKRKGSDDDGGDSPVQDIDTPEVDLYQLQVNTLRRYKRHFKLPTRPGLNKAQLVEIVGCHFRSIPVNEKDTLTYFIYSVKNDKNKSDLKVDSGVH
UniProt O60832: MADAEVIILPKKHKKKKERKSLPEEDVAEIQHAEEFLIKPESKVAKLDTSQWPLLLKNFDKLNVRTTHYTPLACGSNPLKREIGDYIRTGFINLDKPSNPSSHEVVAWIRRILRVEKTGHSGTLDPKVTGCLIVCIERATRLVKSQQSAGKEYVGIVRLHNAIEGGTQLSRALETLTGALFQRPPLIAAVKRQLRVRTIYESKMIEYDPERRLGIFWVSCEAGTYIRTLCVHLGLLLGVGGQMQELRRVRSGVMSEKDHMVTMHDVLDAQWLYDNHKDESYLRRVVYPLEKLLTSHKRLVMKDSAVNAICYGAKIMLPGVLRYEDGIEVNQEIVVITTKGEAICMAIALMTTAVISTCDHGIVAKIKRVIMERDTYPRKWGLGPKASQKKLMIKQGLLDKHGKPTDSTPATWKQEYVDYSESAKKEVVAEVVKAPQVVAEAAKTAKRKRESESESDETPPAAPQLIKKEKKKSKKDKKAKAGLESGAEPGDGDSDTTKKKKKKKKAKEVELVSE
UniProt O43865, whole entry: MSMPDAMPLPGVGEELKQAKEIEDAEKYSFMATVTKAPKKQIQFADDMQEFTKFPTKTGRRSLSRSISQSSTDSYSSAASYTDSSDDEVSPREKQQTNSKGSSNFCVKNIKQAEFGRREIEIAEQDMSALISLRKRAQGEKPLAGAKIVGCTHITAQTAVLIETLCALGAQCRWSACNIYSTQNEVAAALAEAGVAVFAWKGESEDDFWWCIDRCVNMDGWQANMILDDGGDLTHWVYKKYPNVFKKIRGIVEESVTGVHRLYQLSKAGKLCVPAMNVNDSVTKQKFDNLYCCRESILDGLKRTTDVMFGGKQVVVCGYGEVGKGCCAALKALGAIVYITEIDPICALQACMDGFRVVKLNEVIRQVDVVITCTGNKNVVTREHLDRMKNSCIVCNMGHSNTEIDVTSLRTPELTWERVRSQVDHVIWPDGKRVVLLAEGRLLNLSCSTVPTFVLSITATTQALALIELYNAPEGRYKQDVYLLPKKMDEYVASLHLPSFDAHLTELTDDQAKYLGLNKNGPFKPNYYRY
UniProt O75348, whole entry, looked up: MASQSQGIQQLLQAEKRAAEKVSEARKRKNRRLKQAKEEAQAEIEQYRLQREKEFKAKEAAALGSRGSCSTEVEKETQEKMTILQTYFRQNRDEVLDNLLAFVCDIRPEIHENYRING

compound: COC(=O)/C=C/c1ccccc1 [methyl cinnamate]; experiment: log2 ratio of iodoacetamide-alkyne labeling of the cysteine site, DMSO over compound (competition); higher = stronger covalent engagement of the cysteine by the compound, active = 1 or more; conditions: 500 µM; treatment time 1 h; system: HEK293T cell lysate
How it was run: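 For each cysteine, the log2 competition ratio is mean control-channel reporter intensity over mean compound-channel reporter intensity. HEK293T lysate (2 mg/mL) was exposed to vehicle or electrophile (500 µM, 1 h, ambient temperature), labelled with iodoacetamide alkyne (1 h), clicked to sCIP-TMT reagents, digested overnight with trypsin at 37 °C, streptavidin-enriched and analysed by Orbitrap Eclipse LC-MS/MS with FAIMS and FragPipe. Cysteines quantified in only one of three replicates, each with duplicate channels, were excluded.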

log2 ratio of iodoacetamide-alkyne labeling, inactive:
UGDH C196 (UniProt O60701) -0.04, KIF1B C1661 (UniProt O60333) 0.218, USO1 C678 (UniProt O60763) 0.0329, GPC4 C408 (UniProt O75487) 0.208, TBC1D4 C266 (UniProt O60343) 0.579, PRC1 C322 (UniProt O43663) -0.179, DNAJB6 C275 (UniProt O75190) 0.0514, IDH1 C379 (UniProt O75874) 0.31, CCDC22 C369 (UniProt O60826) 0.326, H2AFY C297 (UniProt O75367) -0.0893, GMDS C237 (UniProt O60547) 0.109, PRPSAP2 C31 (UniProt O60256) -0.033, IDH3B C185 (UniProt O43837) 0.262, UniProt O60232_C70 0.305, SORBS3 C521 (UniProt O60504) 0.126, SMARCA5 C259 (UniProt O60264) 0.159, RECQL5 C664 (UniProt O94762) 0.472, DCTN3 C140 (UniProt O75935) 0.0548, ACSL4 C420 (UniProt O60488) 0.122, KIN C212 (UniProt O60870) 0.348, LRCH4 C105 (UniProt O75427) 0.256, UniProt O60282_C393 0.0955, PSMD3 C483 (UniProt O43242) 0.0648, TOM1 C37 (UniProt O60784) 0.19, ROCK2 C330 (UniProt O75116) 0.252, UniProt O60610_C1227 -0.00241, NCOR1 C474 (UniProt O75376) 0.185, ANKRD17 C906 (UniProt O75179) 0.344, PEX1 C1185 (UniProt O43933) 0.11, HTATSF1 C295 (UniProt O43719) -0.332, CPNE3 C5 (UniProt O75131) 0.193, SAP30 C184 (UniProt O75446) 0.453, SURF6 C189 (UniProt O75683) 0.391, DKC1 C74 (UniProt O60832) 0.0913, UniProt O43865_C106 0.366, ATP6V1G1 C104 (UniProt O75348) 0.129, TSC22D2 C158 (UniProt O75157) 0.141, ANKRD17 C58 (UniProt O75179) 0.616
